# Data reported in the supplement of paper PMC8728848.
# Some of the results follow.
# B1: PX14343F-bfa-562-20-562 (Bacteroides fragilis) (protein)
# chain: CDDFLDSFPQDTVTNENFWKSKEDADKVLVDIYASLLPKDAIFFDEAMSDNAYLVWDWWGGAQQVANGSYTTSGEIPTNRWNGSYEVIRKCWFLLEGIEKIEDISEQDKNKIIGETYFMLAYNYYVLTSYFGDVPLVTKTLAIPESKQLVRTPKAEVVDYAINKLKEAAVMLEGLSQEKGRVTADACRFLIARMYLYNGDYSNVLETVKLLEGKYQLYREGDTPYEDLFSGVAENSCEVILSVVCDKRVGEIYTSHGGNGIMLLKGITGEDPYRGVTPSGSLVDAYPMADGRLIHEAGSSYDPKKPYEGRDPRFYQSIVYPTGQIKYLDVETGTVKERLYDPEDPTTVPEHQYNYSQPSATGYMWNKYIDYSVYAMNSVWDCTNDIIVFRYADVLLMKAEALLQTKGESAKEEVCNLIDQLRDRCSCGRVHRENYNSKDELMELLKNERRIELANEGLRYMDLIRWKDAEKNTIVTGVGLTGQMYGAYMRKDGVGKDDKTVDVDNTPRRYIETRYFNASKGYLFPIPQKERDLNPNLTQNPNW
# What was measured:
# Experiment in all cases: glycan array binding signal (z-score within array); higher = stronger binding
# Details in all cases: glycan notation: IUPAC condensed, linker removed
# [1] = biological target: Fuc(a1-2)[Gal(a1-3)]Gal(b1-4)GlcNAc(b1-2)Man(a1-3)[Fuc(a1-2)[Gal(a1-3)]Gal(b1-4)GlcNAc(b1-2)Man(a1-6)]Man(b1-4)GlcNAc(b1-4)[Fuc(a1-6)]GlcNAc
# Summary of the method: (§1)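 From the Consortium for Functional Glycomics database, 3228 arrays were curated, keeping only those whose protein sequence was available. Binding is given as a within-array Z-score averaged across arrays sharing a protein sequence and across linkers. Negative Z-scores can be read as non-binding.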
# [2] = biological target: Fuc(a1-2)[Gal(a1-3)]Gal(b1-4)GlcNAc(b1-3)GalNAc
# Summary of the method: as §1
# [3] = biological target: Fuc(a1-2)[Gal(a1-3)]Gal(b1-4)GlcNAc(b1-3)[Fuc(a1-2)[Gal(a1-3)]Gal(b1-4)GlcNAc(b1-6)]GalNAc
# Summary of the method: as §1
# [4] = biological target: Fuc(a1-2)[Gal(a1-3)]Gal(b1-4)GlcNAc(b1-6)GalNAc
# Summary of the method: as §1
# [5] = biological target: Fuc(a1-2)[Gal(a1-3)]Gal(b1-4)[Fuc(a1-3)]Glc
# Summary of the method: as §1
# [6] = biological target: Fuc(a1-2)[Gal(a1-3)]Gal(b1-4)[Fuc(a1-3)]GlcNAc
# Summary of the method: as §1
# [7] = biological target: Fuc(a1-2)[Gal(a1-3)]Gal(b1-4)[Fuc(a1-3)]GlcNAc(b1-3)GalNAc
# Summary of the method: as §1
# [8] = biological target: Fuc(a1-2)[Gal(a1-4)]Gal(b1-4)GlcNAc
# Summary of the method: as §1
# [9] = biological target: Fuc(a1-2)[GalNAc(a1-3)]Gal
# Summary of the method: as §1
# [10] = biological target: Fuc(a1-2)[GalNAc(a1-3)]Gal(b1-3)GalNAc(a1-3)[Fuc(a1-2)]Gal(b1-4)GlcNAc
# Summary of the method: as §1
# [11] = biological target: Fuc(a1-2)[GalNAc(a1-3)]Gal(b1-3)GalNAc(b1-3)Gal(a1-4)Gal(b1-4)Glc
# Summary of the method: as §1
# [12] = biological target: Fuc(a1-2)[GalNAc(a1-3)]Gal(b1-3)GlcNAc
# Summary of the method: as §1
# [13] = biological target: Fuc(a1-2)[GalNAc(a1-3)]Gal(b1-3)GlcNAc(b1-2)Man(a1-3)[Fuc(a1-2)[GalNAc(a1-3)]Gal(b1-3)GlcNAc(b1-2)Man(a1-6)]Man(b1-4)GlcNAc(b1-4)GlcNAc
# Summary of the method: as §1
# [14] = biological target: Fuc(a1-2)[GalNAc(a1-3)]Gal(b1-3)GlcNAc(b1-2)Man(a1-3)[Fuc(a1-2)[GalNAc(a1-3)]Gal(b1-3)GlcNAc(b1-2)Man(a1-6)]Man(b1-4)GlcNAc(b1-4)[Fuc(a1-6)]GlcNAc
# Summary of the method: as §1
# [15] = biological target: Fuc(a1-2)[GalNAc(a1-3)]Gal(b1-3)GlcNAc(b1-3)GalNAc
# Summary of the method: as §1
# [16] = biological target: Fuc(a1-2)[GalNAc(a1-3)]Gal(b1-3)GlcNAc(b1-6)GalNAc
# Summary of the method: as §1
# [17] = biological target: Fuc(a1-2)[GalNAc(a1-3)]Gal(b1-4)Glc
# Summary of the method: as §1
# [18] = biological target: Fuc(a1-2)[GalNAc(a1-3)]Gal(b1-4)GlcNAc
# Summary of the method: as §1
# [19] = biological target: Fuc(a1-2)[GalNAc(a1-3)]Gal(b1-4)GlcNAc(b1-2)Man
# Summary of the method: as §1
# [20] = biological target: Fuc(a1-2)[GalNAc(a1-3)]Gal(b1-4)GlcNAc(b1-2)Man(a1-3)[Fuc(a1-2)[GalNAc(a1-3)]Gal(b1-4)GlcNAc(b1-2)Man(a1-6)]Man(b1-4)GlcNAc(b1-4)GlcNAc
# Summary of the method: as §1
# [21] = biological target: Fuc(a1-2)[GalNAc(a1-3)]Gal(b1-4)GlcNAc(b1-2)Man(a1-3)[Fuc(a1-2)[GalNAc(a1-3)]Gal(b1-4)GlcNAc(b1-2)Man(a1-6)]Man(b1-4)GlcNAc(b1-4)[Fuc(a1-6)]GlcNAc
# Summary of the method: as §1
# [22] = biological target: Fuc(a1-2)[GalNAc(a1-3)]Gal(b1-4)GlcNAc(b1-3)Gal(b1-4)GlcNAc
# Summary of the method: as §1
# [23] = biological target: Fuc(a1-2)[GalNAc(a1-3)]Gal(b1-4)GlcNAc(b1-3)Gal(b1-4)GlcNAc(b1-3)Gal(b1-4)GlcNAc
# Summary of the method: as §1
# [24] = biological target: Fuc(a1-2)[GalNAc(a1-3)]Gal(b1-4)GlcNAc(b1-3)GalNAc
# Summary of the method: as §1
# [25] = biological target: Fuc(a1-2)[GalNAc(a1-3)]Gal(b1-4)GlcNAc(b1-3)[Fuc(a1-2)[GalNAc(a1-3)]Gal(b1-4)GlcNAc(b1-6)]GalNAc
# Summary of the method: as §1
# [26] = biological target: Fuc(a1-2)[GalNAc(a1-3)]Gal(b1-4)GlcNAc(b1-6)GalNAc
# Summary of the method: as §1
# [27] = biological target: Fuc(a1-2)[GalNAc(a1-3)]Gal(b1-4)[Fuc(a1-3)]GlcNAc
# Summary of the method: as §1
# [28] = biological target: Fuc(a1-2)[GalNAc(a1-3)]Gal(b1-4)[Fuc(a1-3)]GlcNAc(b1-3)GalNAc
# Summary of the method: as §1
# [29] = biological target: Fuc(a1-2)[GalNAc(a1-4)]Gal(b1-4)GlcNAc
# Summary of the method: as §1
# [30] = biological target: Fuc(a1-2)[GalNAc(b1-3)]Gal
# Summary of the method: as §1
binder,measurement,setting,value
B1,glycan array binding signal (z-score),[1],-0.217
same,glycan array binding signal (z-score),[2],-0.274
same,glycan array binding signal (z-score),[3],-0.018
same,glycan array binding signal (z-score),[4],-0.68
same,glycan array binding signal (z-score),[5],0.072
same,glycan array binding signal (z-score),[6],-0.524
same,glycan array binding signal (z-score),[7],0.15
same,glycan array binding signal (z-score),[8],1.24
same,glycan array binding signal (z-score),[9],0.005
same,glycan array binding signal (z-score),[10],-0.953
same,glycan array binding signal (z-score),[11],0.449
same,glycan array binding signal (z-score),[12],-0.441
same,glycan array binding signal (z-score),[13],-0.384
same,glycan array binding signal (z-score),[14],0.403
same,glycan array binding signal (z-score),[15],0.067
same,glycan array binding signal (z-score),[16],-0.2
same,glycan array binding signal (z-score),[17],-0.591
same,glycan array binding signal (z-score),[18],0.215
same,glycan array binding signal (z-score),[19],0.033
same,glycan array binding signal (z-score),[20],1.03
same,glycan array binding signal (z-score),[21],-0.296
same,glycan array binding signal (z-score),[22],-0.718
same,glycan array binding signal (z-score),[23],0.611
same,glycan array binding signal (z-score),[24],-0.295
same,glycan array binding signal (z-score),[25],0.257
same,glycan array binding signal (z-score),[26],-0.301
same,glycan array binding signal (z-score),[27],0.762
same,glycan array binding signal (z-score),[28],0.453
same,glycan array binding signal (z-score),[29],0.081
same,glycan array binding signal (z-score),[30],-0.11

# A second format for part of the listing above.
binder	measurement	setting	value
B1	glycan array binding signal (z-score)	[9]	0.005
same	glycan array binding signal (z-score)	[30]	-0.11
